This is an account of results in publication PMC3723494.

Chains of the proteins cited; added tags and fusions are not shown.
UniProt Q91YE7: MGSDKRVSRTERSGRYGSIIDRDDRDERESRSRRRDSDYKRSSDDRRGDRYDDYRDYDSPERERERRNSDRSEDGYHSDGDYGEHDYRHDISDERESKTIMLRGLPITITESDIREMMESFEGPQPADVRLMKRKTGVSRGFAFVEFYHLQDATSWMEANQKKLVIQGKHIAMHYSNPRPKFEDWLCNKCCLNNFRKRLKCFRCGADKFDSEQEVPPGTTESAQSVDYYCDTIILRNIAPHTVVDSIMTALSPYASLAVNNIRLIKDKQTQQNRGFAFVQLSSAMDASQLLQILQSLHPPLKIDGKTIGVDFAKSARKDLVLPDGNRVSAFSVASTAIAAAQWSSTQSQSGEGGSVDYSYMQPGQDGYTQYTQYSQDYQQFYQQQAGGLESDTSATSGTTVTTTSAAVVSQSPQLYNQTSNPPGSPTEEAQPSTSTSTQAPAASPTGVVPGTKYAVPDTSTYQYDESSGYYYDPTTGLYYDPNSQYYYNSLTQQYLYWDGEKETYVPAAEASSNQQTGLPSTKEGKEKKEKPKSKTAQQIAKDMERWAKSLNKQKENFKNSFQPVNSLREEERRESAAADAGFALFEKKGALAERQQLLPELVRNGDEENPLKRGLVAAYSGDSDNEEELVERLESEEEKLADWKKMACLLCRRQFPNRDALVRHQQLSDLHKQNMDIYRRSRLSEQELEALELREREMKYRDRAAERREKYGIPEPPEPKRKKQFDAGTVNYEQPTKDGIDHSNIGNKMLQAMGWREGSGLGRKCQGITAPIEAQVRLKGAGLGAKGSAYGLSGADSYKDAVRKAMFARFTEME
UniProt O88569: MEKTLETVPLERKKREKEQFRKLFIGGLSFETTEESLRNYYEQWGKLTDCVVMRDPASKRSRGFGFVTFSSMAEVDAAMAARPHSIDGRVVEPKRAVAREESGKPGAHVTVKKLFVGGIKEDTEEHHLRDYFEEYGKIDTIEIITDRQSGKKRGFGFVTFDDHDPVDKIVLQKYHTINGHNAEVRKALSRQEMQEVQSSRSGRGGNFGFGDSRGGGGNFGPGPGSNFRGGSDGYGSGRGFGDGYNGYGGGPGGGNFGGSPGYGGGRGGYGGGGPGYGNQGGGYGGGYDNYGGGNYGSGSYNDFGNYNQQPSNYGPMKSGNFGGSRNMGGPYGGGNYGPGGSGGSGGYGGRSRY

For the assay, the target named is RBM5 (RNA binding motif 5) (mouse (endogenous in round spermatids)) (UniProt Q91YE7). Kind of assay: co-IP; co-immunoprecipitation from round spermatid extracts with the RBM5 antibody (IgG pull down as control), immunoblot for SFPQ and hnRNP A2/B1.

Results are given in words; binding and its absence hold for the method and conditions named. In cells and extracts the contact can be indirect. Some results given as binding are weak or reduced against the parent protein; the word gives no strength.

On to “hnRNP A2/B1 (heterogeneous nuclear ribonucleoprotein A2/B1) (from UniProt O88569 1-353)”, for which the binding entry was “binds”.

B1: splicing factor SFPQ (proline- and glutamine-rich) (protein, UniProt Q8VIJ6 1-699)
chain: MSRDRFRSRGGGGGGFHRRGGGGGRGGLHDFRSPPPGMGLNQNRGPMGPGPGGPKPPLPPPPPHQQQQQPPPQQPPPQQPPPHQQPPPHQPPHQQPPPPPQESKPVVPQGPGSAPGVSSAPPPAVSAPPANPPTTGAPPGPGPTPTPPPAVPSTAPGPPPPSTPSSGVSTTPPQTGGPPPPPAGGAGPGPKPGPGPGGPKGGKMPGGPKPGGGPGMGAPGGHPKPPHRGGGEPRGGRQHHAPYHQQHHQGPPPGGPGPRTEEKISDSEGFKANLSLLRRPGEKTYTQRCRLFVGNLPADITEDEFKRLFAKYGEPGEVFINKGKGFGFIKLESRALAEIAKAELDDTPMRGRQLRVRFATHAAALSVRNLSPYVSNELLEEAFSQFGPIERAVVIVDDRGRSTGKGIVEFASKPAARKAFERCSEGVFLLTTTPRPVIVEPLEQLDDEDGLPEKLAQKNPMYQKERETPPRFAQHGTFEYEYSQRWKSLDEMEKQQREQVEKNMKDAKDKLESEMEDAYHEHQANLLRQDLMRRQEELRRMEELHSQEMQKRKEMQLRQEEERRRREEEMMIRQREMEEQMRRQREESYSRMGYMDPRERDMRMGGGGTMNMGDPYGSGGQKFPPLGGGGGIGYEANPGVPPATMSGSMMGSDMRTERFGQGGAGPVGGQGPRGMGPGTPAGYGRGREEYEGPNKKPRF
As to B1, the binding entry is on record as “binds”.
